Test results as given in patent US5968791A, “Plant lysophosphatidic acid acyltransferases” (Calgene, Inc., priority 1995, dated 1999).
Where “and” joins values, the source holds several entries; their conditions need not be identical. Equal values may be shown once.

Assay: sn-2 fatty acyl composition of TAG by modified lipase digestion
Set-up: species or system Brassica napus
Conditions: structured TAG standards and line 23-198 oil (Table 7)

**Q.** With `CCCCCCCC/C=C\CCCCCCCC(=O)OC[C@H](COC(=O)CCCCCCCCCCC)OC(=O)CCCCCCC/C=C\CCCCCCCC` [(S)LaOO] as the compound, how does the “Mol % 12:0 at sn-2 measured” value read?
**A.** 2.5 Mol % and 4.2 Mol %

**Q.** With `CCCCCCCC/C=C\CCCCCCCC(=O)OCC(COC(=O)CCCCCCC/C=C\CCCCCCCC)OC(=O)CCCCCCCCCCC` [OLaO (sn)] as the compound, how does the “Mol % 12:0 at sn-2 measured” value read?
**A.** 96.3 Mol %

**Q.** Which “Mol % 12:0 at sn-2 measured” value does the source give for `CCCCCCCC/C=C\CCCCCCCC(=O)OC[C@@H](COC(=O)CCCCCCCCCCC)OC(=O)CCCCCCC/C=C\CCCCCCCC` [(R)LaOO] here?
**A.** 2.6 Mol % and 2.1 Mol %
